Measurements from paper doi:10.1101/2021.04.11.438637.

Sequences of proteins named here, by UniProt entry; tags and fusion partners are left off. A change or cut given only in a name is not applied to a line headed by its entry.
UniProt O04567: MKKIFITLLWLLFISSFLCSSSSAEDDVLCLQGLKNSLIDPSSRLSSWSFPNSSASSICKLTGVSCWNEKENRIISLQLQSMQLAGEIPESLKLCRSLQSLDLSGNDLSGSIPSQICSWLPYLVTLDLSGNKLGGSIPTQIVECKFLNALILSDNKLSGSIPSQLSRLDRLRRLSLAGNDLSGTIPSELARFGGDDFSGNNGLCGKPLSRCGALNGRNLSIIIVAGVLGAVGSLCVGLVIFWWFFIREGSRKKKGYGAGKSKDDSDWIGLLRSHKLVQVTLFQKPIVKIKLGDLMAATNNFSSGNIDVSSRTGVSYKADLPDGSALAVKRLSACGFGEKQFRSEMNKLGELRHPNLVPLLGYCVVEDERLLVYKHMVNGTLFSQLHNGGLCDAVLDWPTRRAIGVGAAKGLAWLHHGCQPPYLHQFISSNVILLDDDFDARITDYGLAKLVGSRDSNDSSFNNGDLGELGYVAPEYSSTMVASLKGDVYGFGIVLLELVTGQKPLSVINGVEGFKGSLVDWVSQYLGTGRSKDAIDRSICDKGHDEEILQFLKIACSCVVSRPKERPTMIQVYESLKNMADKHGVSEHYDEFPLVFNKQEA

Molecular target: BIR3-YFP (Arabidopsis thaliana) (UniProt O04567)
Test: affinity purification with mass spectrometry

binding: binds
B1: CONSTITUTIVE SHADE AVOIDANCE 1 (CSA1), endogenous (protein, UniProt F4KIF3 1-1197)
chain: MTSSSSWVKTDGETPQDQVFINFRGVELRKNFVSHLEKGLKRKGINAFIDTDEEMGQELSVLLERIEGSRIALAIFSPRYTESKWCLKELAKMKERTEQKELVVIPIFYKVQPVTVKELKGDFGDKFRELVKSTDKKTKKEWKEALQYVPFLTGIVLDEKSDEDEVINIIIRKVKEILNRRSEGPPSKCSALPPQRHQKRHETFWGIELRIKQLEEKLRFGSDETTRTIGVVGMPGIGKTTLATMLYEKWNDRFLRHVLIRDIHEASEEDGLNYLATKFLQGLLKVENANIESVQAAHEAYKDQLLETKVLVILDNVSNKDQVDALLGERNWIKKGSKILITTSDKSLMIQSLVNDTYEVPPLSDKDAIKHFIRYAFDGNEGAAPGPGQGNFPKLSKDFVHYTKGNPLALQMLGKELLGKDESHWGLKLNALDQHHNSPPGQSICKMLQRVWEGSYKALSQKEKDALLDIACFRSQDENYVASLLDSDGPSNILEDLVNKFMINIYAGKVDMHDTLYMLSKELGREATATDRKGRHRLWHHHTIIAVLDKNKGGSNIRSIFLDLSDITRKWCFYRHAFAMMRDLRYLKIYSTHCPQECESDIKLNFPEGLLLPLNEVRYLHWLKFPLKEVPQDFNPGNLVDLKLPYSEIERVWEDNKDAPKLKWVNLNHSKKLNTLAGLGKAQNLQELNLEGCTALKEMHVDMENMKFLVFLNLRGCTSLKSLPEIQLISLKTLILSGCSKFKTFQVISDKLEALYLDGTAIKELPCDIGRLQRLVMLNMKGCKKLKRLPDSLGQLKALEELILSGCSKLNEFPETWGNMSRLEILLLDETAIKDMPKILSVRRLCLNKNEKISRLPDLLNKFSQLQWLHLKYCKNLTHVPQLPPNLQYLNVHGCSSLKTVAKPLVCSIPMKHVNSSFIFTNCNELEQAAKEEIVVYAERKCHLLASALKRCDESCVPEILFCTSFPGCEMPSWFSHDAIGSMVEFELPPHWNHNRLSGIALCVVVSFKNCKSHANLIVKFSCEQNNGEGSSSSITWKVGSLIEQDNQEETVESDHVFIGYTNCLDFIKLVKGQGGPKCAPTKASLEFSVRTGTGGEATLEVLKSGFSFVFEPEENRVPSPRNDDVKGKVKINKTPSANGCFKDQAKGNESPKGQWQTYIENSSTNIPSEAHSSQKTGFNGFNGMYSVCVLYEMYSH

No constants are given. Whether binding was seen depends on the method and setting. Binding seen in cells or lysates may run through a third protein. A yes stands for co-enrichment or nearness to the bait. Other partners may have been found.
